1 molecule from patent US20240400686A1 can be followed below.

In this experiment the target is human CD3 on cells (Jurkat cells; T cells of human PBMCs) (human). In words: flow cytometry, hybridoma culture supernatants on Jurkat cells. A general note: A flow cytometer gives signals particle by particle.

No constants are given. Whether binding was seen depends on the method and setting. A result given as binding can be weak or reduced; the word gives no strength.

B1: antibody 3F11 (antibody, V domains shown)
VH: QVQLQQSGPDLVRPGASVKMSCKASGYTFTNYYVHWLNQRPGQGLEWIGWIYPGDGSTKFNEKFKGKTTLTADKSSSTAYILLSSLTSADSAIYFCTRDAGYYFDVWGAGTTVTVSS
VL: DIVMSQSPSSLAVSAGEKVTISCKSSQSLLNNRTRKNYLAWYQQKPGQSPKLLIYWASTRESGVPDRFTGSGSGTDFTLTISSVQAEDLAVYYCKQSYILRTFGGGTKLEIK
In the case of B1, the binding result is “binds”.
